Measured values: PMC7949112
No constants are given. Whether binding was seen depends on the method and setting. In cells and extracts the contact can be indirect. Binding can be weak; no strength is given. Sequences can lack the tags named with a protein.

Biological target: T1, Flag-Radil, full length (human) (UniProt Q96JH8)
T1 sequence: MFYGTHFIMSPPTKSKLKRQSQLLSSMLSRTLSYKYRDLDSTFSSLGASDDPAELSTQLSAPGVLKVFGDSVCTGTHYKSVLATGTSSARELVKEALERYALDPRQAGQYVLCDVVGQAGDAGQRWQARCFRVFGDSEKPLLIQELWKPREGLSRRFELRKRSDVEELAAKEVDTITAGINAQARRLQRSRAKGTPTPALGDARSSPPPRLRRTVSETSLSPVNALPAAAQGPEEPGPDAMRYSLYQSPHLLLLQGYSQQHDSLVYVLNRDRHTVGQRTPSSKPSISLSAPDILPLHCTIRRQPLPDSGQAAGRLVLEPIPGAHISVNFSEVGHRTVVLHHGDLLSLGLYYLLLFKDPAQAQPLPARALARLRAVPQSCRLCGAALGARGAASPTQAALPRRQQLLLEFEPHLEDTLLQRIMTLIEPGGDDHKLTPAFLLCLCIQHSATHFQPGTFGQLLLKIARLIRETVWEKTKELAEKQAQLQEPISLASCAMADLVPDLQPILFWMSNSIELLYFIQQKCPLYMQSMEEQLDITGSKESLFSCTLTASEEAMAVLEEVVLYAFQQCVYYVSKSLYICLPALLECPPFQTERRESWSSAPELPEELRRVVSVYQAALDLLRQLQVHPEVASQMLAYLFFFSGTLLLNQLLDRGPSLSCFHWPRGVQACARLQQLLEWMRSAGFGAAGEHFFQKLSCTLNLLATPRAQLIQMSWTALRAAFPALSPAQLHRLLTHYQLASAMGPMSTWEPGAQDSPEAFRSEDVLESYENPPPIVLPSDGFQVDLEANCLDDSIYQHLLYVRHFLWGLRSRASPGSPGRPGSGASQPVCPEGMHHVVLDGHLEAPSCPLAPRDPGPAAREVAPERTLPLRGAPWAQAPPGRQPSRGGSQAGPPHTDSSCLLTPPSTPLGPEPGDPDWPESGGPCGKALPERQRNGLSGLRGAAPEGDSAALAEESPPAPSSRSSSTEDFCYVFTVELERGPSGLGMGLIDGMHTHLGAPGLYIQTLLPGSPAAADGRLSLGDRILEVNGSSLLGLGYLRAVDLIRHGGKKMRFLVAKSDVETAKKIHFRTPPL
Experiment: co-IP; HEK293T transfected for 24 h; lysis in TBSN buffer (20 mM Tris-Cl pH 8.0, 150 mM NaCl, 0.5% NP-40, 5 mM EGTA, 1.5 mM EDTA); 1 mg cleared lysate on Flag M2 agarose, 1 h at 4 °C; immunoblotting

In the case of “Rap1 (endogenous) (human (endogenous in HEK293T))”, the binding was “binds”.
